These are yes or no findings as the source states them, for the method shown. A result given as binding can be weak or reduced; the word gives no strength.
Biological target: SNAP–FZD5 (UniProt Q13467)
Test: recruitment assay (GFP fusion recruited to membrane-associated SNAP–FZD5 in co-transfected cells, confocal microscopy); co-overexpression of DVL2–GFP or DEP–GFP with SNAP–FZD5 in HEK293T cells; 100 cells scored for DEP–GFP

Amino acid sequences for entries named in this document (tags omitted). A change or cut given only in a name is not applied to a line headed by its entry. Residues count along the entry.
UniProt Q13467, residues 27-585: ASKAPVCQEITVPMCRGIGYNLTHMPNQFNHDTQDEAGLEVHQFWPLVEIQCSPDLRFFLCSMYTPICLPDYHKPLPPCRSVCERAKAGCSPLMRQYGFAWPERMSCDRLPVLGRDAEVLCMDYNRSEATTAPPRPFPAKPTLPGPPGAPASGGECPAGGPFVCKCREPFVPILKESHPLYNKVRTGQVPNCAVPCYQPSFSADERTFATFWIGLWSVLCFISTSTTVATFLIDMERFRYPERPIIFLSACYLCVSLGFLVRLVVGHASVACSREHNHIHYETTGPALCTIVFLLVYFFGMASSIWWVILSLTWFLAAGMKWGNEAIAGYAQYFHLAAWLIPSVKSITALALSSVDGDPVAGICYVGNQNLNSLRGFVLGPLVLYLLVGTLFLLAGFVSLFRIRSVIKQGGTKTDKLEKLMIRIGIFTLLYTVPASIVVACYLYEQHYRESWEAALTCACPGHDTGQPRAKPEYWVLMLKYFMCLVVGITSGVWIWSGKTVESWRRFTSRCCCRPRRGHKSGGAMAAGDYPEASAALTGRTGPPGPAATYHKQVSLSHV
UniProt O14641: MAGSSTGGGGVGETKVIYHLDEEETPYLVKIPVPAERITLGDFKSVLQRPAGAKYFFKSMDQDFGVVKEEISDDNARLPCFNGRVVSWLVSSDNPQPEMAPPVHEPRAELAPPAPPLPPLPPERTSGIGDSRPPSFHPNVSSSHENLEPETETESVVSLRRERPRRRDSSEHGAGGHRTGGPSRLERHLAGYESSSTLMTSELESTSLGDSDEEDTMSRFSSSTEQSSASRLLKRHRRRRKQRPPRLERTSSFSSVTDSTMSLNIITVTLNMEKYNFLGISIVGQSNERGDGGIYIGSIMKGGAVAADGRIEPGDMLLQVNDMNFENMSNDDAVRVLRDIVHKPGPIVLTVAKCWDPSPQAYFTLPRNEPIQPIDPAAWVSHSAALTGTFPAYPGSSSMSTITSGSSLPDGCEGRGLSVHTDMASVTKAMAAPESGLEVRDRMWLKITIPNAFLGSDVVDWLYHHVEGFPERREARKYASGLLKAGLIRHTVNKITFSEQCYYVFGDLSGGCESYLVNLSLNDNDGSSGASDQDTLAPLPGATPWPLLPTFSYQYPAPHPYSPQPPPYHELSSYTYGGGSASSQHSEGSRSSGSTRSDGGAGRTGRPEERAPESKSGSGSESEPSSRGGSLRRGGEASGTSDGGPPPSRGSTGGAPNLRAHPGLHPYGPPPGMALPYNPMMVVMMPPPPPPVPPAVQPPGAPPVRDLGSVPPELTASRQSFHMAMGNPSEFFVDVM

binding: binds
Substance: DEP–GFP, wt (minimal DEP domain of DVL2) (from UniProt O14641) (domain or fragment)

From publication PMC5087658, “Essential role of the Dishevelled DEP domain in a Wnt-dependent human-cell-based complementation assay” (Journal of Cell Science, 2016)
